From PMC5789847, “Bismuth antimicrobial drugs serve as broad-spectrum metallo-β-lactamase inhibitors” (Nature Communications, 2018) come the findings set out here.

One experiment deals with E. coli ATCC 25922. The experiment can be described thus: Microdilution MIC assay. The format is cell-based. The conditions noted are these: Escherichia coli, ATCC 25922 / CBS0, CBS 0 µg mL-1, read-out: MIC of MER, CBS at 0. The text has this:
(§1) Other procedures were kept strictly the same.
On the technique in general: Dilution methods test growth across graded concentrations, often in twofold steps.

The next experiment relates to E. coli BL21(DE3). Nature of the experiment: Microdilution MIC assay. In kind it is cell-based. Particulars: Escherichia coli, CBS0, CBS 0 µg mL-1, read-out: MIC of MER, CBS at 0.
Text: as §1

With `C[C@@H](O)[C@H]1C(=O)N2C(C(=O)O)=C(S[C@@H]3CN[C@H](C(=O)N(C)C)C3)[C@H](C)[C@H]12` [MER, meropenem], the minimal inhibitory concentration (MIC) with E. coli ATCC 25922 and in the experiment with E. coli BL21(DE3) was 0.03 µg/mL each time.
